These are yes or no findings as the source states them, for the method shown. Binding seen in cells or lysates may run through a third protein. Some entries that bind do so weakly or less than the wild type.
Target: GST-SU(VAR)3–9NT (aa 1–152) (Drosophila) (UniProt P45975)
Assay: pull-down; GST-SU(VAR)3–9NT bound to a GSTrap FF column (parallel GST column); Drosophila 0–12 hour embryo nuclear extract loaded; wash 200 mM NaCl, 20 mM Tris-HCl pH 8.0, 1 mM EDTA, 0.5% Nonidet P-40; step elution 250, 500, 750 mM NaCl and reduced glutathione; Western blot of fractions; only the target purified

Protein sequences, listed by entry. Tags and fused reporters are not part of them. Residues count along the entry.
UniProt P45975, residues 1-152: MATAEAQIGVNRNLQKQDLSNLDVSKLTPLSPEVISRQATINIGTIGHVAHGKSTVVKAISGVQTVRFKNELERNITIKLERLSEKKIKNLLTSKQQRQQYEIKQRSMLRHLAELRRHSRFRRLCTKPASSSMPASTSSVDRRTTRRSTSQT
UniProt Q94517: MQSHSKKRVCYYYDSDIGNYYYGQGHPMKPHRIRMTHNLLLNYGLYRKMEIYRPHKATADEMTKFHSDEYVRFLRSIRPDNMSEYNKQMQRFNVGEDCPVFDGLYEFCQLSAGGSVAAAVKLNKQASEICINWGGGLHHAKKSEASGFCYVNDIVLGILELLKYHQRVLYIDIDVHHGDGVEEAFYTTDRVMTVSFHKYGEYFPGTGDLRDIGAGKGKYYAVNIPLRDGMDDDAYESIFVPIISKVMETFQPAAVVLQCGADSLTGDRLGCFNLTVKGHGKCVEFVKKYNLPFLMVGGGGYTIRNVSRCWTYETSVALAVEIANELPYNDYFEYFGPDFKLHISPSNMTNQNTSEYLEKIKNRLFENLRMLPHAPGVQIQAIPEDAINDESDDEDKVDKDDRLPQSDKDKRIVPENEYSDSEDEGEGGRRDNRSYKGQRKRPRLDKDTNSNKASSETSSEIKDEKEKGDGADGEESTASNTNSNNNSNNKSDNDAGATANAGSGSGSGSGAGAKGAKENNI

## RPD3 (endogenous, Drosophila embryo nuclear extract) (from UniProt Q94517 1-521) (enzyme)
  binding: binds

Reference: publication PMC2850320
